Data on two molecules can be found in ChEMBL document CHEMBL3616364, “Going Out on a Limb: Delineating The Effects of β-Branching, N-Methylation, and Side Chain Size on the Passive Permeability, Solubility, and Flexibility of Sanguinamide A Analogues” (J Med Chem, 2015).

Structures are written as SMILES. Values after ≈ are worked out from the molar mass of the structure shown.

The nature of data set [1]: Kinetic solubility of the compound in PBS at pH 7.4. The settings on record: buffer.
The next data set can be described thus: physchem. To be noted: buffer.

For orientation: kinetic solubility means the concentration staying in solution when a stock, usually in DMSO, is diluted into the medium. Molecule `CC[C@H](C)[C@@H]1NC(=O)[C@@H]2CCCN2C(=O)[C@H](Cc2ccccc2)NC(=O)[C@H](C(C)(C)C)NC(=O)c2csc(n2)[C@H]([C@@H](C)CC)NC(=O)[C@@H]2CCCN2C1=O` had a solubility (kinetic) in data set [1] of 36 µM (≈ 27.5 µg/mL).
The term solubility (thermodynamic) denotes solubility found after equilibrating the solid with the medium. `CC[C@H](C)[C@@H]1NC(=O)[C@@H]2CCCN2C(=O)[C@H](Cc2ccccc2)N(C)C(=O)[C@H](C(C)(C)C)NC(=O)c2csc(n2)[C@H]([C@@H](C)CC)NC(=O)[C@@H]2CCCN2C1=O` came in with a kinetic solubility in data set [1] of 36 µM (≈ 28 µg/mL). In “physchem”, this molecule registered a solubility (thermodynamic) at 48 h of 8 µM (≈ 6.22 µg/mL).
